From paper PMC9258208 come the findings set out here.

Amino acid sequences for entries named in this document (tags omitted).
UniProt Q9Y4A5: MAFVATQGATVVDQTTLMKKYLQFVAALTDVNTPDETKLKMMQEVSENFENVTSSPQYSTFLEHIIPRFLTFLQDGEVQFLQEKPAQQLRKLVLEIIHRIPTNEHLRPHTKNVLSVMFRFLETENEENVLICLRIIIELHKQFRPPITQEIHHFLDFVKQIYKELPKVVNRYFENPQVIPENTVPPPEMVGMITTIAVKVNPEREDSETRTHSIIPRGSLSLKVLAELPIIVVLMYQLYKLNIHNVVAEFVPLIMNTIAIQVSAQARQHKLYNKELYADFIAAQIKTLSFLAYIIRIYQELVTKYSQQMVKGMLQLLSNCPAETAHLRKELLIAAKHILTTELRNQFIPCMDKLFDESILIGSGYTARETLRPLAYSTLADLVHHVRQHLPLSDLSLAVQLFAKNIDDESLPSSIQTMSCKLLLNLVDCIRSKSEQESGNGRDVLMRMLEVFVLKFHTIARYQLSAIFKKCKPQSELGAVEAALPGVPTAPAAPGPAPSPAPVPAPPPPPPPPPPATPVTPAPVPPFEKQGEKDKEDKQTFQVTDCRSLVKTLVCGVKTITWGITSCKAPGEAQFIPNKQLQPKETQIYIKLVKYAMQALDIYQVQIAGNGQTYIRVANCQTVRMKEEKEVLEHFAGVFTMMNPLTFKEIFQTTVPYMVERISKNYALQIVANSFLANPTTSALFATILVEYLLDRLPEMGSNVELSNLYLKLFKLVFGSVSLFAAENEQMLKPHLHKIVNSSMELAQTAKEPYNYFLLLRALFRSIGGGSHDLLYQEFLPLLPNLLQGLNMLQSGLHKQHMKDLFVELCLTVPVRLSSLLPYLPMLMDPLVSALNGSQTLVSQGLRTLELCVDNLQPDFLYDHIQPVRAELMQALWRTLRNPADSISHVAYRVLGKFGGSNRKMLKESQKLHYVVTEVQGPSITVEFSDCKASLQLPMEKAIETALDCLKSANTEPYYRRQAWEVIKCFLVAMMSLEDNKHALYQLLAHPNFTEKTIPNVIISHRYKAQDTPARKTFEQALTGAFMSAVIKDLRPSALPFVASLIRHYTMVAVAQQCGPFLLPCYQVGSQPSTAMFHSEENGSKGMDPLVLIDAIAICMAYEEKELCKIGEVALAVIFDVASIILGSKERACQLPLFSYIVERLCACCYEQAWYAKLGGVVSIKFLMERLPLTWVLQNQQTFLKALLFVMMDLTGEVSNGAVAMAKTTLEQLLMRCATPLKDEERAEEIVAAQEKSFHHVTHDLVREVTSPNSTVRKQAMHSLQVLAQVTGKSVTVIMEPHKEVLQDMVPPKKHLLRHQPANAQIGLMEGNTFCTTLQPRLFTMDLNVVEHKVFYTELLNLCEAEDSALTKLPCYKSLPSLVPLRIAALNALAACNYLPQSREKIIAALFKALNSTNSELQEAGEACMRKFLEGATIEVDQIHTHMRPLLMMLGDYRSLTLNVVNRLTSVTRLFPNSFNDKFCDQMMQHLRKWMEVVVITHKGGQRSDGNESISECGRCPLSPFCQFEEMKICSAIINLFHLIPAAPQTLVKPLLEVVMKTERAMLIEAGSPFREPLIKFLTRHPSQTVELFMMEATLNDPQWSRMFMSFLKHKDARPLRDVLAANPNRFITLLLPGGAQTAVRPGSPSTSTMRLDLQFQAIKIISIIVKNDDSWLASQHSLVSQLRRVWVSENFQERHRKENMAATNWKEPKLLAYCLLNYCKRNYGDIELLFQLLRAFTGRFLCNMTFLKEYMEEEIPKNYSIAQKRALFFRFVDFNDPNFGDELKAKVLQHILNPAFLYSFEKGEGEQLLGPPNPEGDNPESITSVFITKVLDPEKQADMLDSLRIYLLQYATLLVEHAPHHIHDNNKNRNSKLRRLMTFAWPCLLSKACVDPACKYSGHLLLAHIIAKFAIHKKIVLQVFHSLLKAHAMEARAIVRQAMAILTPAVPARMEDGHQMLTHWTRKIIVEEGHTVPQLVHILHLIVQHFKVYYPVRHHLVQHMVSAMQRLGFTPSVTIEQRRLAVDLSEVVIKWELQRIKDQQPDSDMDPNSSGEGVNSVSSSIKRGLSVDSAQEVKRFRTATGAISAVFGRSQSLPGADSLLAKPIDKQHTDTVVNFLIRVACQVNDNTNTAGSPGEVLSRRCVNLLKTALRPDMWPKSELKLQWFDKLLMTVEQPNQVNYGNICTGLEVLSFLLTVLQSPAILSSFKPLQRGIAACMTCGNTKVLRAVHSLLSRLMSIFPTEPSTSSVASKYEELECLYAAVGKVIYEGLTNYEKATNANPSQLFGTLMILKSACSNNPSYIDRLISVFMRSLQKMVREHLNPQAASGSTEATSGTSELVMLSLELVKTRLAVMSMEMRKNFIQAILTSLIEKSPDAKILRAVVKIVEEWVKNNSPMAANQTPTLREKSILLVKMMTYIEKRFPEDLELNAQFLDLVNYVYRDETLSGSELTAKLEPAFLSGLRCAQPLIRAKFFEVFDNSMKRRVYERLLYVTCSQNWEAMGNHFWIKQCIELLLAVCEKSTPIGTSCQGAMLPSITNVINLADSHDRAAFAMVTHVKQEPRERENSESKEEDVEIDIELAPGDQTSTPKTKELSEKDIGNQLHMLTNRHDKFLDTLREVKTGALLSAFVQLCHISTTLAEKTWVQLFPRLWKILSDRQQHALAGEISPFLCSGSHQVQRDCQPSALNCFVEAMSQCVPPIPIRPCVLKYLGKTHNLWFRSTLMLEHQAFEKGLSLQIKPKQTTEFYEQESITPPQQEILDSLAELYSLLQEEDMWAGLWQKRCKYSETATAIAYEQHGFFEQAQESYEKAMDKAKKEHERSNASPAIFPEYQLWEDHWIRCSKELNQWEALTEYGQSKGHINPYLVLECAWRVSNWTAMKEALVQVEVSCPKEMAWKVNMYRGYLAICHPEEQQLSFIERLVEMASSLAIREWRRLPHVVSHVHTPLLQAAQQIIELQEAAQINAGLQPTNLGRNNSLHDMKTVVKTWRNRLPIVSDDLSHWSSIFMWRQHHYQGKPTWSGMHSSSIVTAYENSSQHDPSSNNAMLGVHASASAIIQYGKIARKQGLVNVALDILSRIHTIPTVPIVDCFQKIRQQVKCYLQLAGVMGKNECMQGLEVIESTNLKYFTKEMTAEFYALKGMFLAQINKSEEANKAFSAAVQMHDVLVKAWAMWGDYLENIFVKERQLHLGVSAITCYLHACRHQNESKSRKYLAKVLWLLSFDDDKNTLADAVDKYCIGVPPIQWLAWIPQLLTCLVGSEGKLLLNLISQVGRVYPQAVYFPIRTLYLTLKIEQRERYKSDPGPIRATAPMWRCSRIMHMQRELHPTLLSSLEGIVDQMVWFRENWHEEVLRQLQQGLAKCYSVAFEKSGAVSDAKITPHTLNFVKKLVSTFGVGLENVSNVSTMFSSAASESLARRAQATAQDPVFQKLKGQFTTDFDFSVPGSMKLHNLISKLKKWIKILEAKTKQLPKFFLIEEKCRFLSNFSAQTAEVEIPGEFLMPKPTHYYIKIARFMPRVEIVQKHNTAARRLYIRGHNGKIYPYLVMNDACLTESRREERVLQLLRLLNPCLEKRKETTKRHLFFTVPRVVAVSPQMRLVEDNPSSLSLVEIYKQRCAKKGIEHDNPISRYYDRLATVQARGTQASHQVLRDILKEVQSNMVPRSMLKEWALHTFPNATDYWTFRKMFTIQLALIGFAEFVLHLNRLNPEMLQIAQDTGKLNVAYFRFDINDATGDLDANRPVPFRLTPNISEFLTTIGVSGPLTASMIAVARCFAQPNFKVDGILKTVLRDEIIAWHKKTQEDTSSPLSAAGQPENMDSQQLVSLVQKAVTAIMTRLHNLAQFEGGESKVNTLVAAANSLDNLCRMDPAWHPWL
UniProt P84022: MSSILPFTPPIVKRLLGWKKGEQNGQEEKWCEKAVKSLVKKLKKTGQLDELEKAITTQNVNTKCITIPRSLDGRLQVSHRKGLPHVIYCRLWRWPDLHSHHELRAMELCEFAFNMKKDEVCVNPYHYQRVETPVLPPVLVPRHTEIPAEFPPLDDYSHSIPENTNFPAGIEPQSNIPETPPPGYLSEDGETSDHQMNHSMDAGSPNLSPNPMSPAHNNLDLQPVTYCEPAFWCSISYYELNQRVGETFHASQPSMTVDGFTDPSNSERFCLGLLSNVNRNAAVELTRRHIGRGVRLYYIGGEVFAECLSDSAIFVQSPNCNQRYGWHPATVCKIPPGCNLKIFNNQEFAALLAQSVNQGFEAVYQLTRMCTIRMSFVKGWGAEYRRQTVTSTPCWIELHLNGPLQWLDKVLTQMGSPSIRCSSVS
UniProt P01106: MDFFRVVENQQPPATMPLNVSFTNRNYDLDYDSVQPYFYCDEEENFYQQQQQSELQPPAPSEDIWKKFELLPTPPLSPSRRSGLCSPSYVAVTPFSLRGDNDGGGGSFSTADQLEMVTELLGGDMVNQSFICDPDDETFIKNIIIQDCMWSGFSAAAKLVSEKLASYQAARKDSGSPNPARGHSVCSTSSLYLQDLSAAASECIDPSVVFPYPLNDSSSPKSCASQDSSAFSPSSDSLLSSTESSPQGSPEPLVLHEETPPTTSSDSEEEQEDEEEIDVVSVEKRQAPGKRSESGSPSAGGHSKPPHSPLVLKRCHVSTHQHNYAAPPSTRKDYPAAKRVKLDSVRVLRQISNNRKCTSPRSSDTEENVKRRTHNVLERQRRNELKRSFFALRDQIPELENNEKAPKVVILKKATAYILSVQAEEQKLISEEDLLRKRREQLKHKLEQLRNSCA

Test [1] addresses TRRAP (human (endogenous in MDA-MB-231)) (UniProt Q9Y4A5). The experiment in a line: co-IP; endogenous proteins; MDA-MB-231 cells stably expressing Smyca or Smyca shRNA; RIPA lysates.
Test [2] concerns the target Smad3 (human (endogenous in MDA-MB-231 and M10)) (UniProt P84022). The experiment in a line: co-IP; endogenous proteins; MDA-MB-231 cells stably expressing Smyca, treated with 5 ng/ml TGF-β for 2 h.

These are yes or no findings as the source states them, for the method shown. In cells and extracts the contact can be indirect. Some binding calls cover weakened binding; strength is not graded here.

With c-Myc (from UniProt P01106 1-454), the binding result in test [1] was “binds”. On to “c-Myc (from UniProt P01106 1-454) (other; other documents disagree on this pair)”, for which the binding result in test [2] is recorded as “binds”.
